Sequences and labels used below:
T1: Streptococcus pyogenes M1 protein (amino acids 42-484), TAP-tagged (Streptococcus pyogenes) (UniProt Q99XV0)
T1 sequence: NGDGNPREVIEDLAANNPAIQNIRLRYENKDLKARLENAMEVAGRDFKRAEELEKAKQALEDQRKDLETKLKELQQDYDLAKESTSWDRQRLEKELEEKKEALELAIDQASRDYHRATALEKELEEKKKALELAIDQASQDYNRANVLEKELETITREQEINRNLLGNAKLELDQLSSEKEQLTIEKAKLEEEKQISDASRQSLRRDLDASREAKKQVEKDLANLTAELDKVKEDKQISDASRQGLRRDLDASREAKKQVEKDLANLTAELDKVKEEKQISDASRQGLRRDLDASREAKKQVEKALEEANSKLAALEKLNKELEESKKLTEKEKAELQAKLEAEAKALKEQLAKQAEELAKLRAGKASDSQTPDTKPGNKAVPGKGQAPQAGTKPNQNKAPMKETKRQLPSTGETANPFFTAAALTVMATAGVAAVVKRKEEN

Protein sequences, listed by entry. Tags and fused reporters are not part of them. Lines headed by an entry give the natural chain unless they say otherwise; changes in a name come on top. Residues count along the entry.
UniProt P07724, residues 25-608: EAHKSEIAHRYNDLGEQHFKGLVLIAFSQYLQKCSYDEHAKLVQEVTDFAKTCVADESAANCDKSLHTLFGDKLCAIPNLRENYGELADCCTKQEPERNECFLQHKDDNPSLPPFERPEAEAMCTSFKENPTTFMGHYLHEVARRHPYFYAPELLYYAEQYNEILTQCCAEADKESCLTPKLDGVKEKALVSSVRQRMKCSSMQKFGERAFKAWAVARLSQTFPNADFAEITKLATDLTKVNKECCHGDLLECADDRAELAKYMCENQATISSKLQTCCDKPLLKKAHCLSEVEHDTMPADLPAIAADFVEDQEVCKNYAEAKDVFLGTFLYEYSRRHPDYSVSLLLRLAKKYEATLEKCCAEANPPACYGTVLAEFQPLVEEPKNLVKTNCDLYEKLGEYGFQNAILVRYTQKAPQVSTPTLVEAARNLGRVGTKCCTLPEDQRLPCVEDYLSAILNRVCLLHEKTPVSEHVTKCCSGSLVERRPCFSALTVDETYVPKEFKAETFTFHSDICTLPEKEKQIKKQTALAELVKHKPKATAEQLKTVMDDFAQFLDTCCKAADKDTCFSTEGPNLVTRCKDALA
UniProt B5THE2: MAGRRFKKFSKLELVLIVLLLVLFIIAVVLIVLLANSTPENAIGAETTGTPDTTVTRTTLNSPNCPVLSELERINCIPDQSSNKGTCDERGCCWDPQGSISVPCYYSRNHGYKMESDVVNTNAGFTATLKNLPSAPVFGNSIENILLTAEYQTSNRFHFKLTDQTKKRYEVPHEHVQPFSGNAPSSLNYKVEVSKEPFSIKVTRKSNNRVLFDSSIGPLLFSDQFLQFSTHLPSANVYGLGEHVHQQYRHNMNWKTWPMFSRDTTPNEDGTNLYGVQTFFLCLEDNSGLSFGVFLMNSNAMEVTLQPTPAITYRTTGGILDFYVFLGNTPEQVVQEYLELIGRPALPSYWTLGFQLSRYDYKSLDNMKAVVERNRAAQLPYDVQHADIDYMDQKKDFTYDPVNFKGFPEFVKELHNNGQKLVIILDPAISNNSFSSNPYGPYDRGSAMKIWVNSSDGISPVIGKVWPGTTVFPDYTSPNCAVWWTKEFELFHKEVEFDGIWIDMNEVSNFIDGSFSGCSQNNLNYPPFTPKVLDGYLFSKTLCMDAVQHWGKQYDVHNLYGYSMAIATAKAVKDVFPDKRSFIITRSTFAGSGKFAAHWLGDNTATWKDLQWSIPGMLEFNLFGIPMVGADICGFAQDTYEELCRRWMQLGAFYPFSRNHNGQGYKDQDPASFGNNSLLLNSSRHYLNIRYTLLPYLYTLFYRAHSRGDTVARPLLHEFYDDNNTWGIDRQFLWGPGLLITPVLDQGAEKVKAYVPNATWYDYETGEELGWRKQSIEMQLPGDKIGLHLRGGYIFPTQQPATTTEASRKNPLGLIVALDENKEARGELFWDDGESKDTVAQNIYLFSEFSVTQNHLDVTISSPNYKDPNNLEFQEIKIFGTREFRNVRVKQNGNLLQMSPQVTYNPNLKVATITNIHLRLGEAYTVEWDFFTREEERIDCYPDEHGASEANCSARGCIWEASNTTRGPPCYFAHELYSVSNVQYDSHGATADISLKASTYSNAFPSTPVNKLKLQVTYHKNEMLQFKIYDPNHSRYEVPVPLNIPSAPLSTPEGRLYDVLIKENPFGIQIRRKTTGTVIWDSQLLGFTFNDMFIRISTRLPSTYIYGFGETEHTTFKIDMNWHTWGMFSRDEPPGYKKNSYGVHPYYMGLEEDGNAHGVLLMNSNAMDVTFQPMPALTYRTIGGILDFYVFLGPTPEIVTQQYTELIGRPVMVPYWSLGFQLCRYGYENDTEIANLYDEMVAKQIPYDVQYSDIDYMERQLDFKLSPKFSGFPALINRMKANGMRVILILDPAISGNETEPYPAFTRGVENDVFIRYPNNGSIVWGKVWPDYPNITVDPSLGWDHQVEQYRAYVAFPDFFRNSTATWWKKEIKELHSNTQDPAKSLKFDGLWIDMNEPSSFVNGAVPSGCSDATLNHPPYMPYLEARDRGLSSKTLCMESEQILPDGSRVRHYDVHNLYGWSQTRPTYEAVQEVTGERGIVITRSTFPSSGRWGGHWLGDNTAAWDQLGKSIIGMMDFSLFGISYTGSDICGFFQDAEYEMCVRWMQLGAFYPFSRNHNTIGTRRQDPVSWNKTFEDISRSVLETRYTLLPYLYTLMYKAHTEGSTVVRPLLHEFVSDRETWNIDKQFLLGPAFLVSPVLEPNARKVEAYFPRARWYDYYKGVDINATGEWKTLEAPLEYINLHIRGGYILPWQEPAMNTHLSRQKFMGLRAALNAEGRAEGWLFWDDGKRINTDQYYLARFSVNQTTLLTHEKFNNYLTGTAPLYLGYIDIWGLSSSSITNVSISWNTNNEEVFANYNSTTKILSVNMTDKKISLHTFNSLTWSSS
UniProt P02768, residues 25-609: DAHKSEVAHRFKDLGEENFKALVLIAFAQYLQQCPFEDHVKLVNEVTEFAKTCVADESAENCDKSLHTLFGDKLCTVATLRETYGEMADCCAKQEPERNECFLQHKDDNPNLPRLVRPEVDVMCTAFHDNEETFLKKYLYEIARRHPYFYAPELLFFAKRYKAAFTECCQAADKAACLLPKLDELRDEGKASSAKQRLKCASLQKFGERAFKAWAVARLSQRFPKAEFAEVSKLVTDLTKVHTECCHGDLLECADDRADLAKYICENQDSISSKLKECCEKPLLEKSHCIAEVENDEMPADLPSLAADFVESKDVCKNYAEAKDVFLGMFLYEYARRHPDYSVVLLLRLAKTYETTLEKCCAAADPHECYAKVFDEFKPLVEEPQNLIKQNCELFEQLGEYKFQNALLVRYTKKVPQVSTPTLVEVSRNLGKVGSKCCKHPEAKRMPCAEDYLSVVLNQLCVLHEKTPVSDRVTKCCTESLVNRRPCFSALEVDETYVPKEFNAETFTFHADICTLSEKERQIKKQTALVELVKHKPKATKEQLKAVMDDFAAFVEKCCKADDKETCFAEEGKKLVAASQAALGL

B1: mouse C4b-binding protein (protein, UniProt P08607 57-469)
chain: KCGPPPAIPNALPASDVNRTDFESHTTLKYECLPGYGRGISRMMVYCKPSGEWEISVSCAKKHCRNPGYLDNGYVNGETITFGSQIEFSCQEGFILVGSSTSSCEVRGKGVAWSNPFPECVIVKCGPPPDISNGKHSGTEDFYPYNHGISYTCDPGFRLVGSPFIGCTVVNKTVPVWSSSPPTCEKIICSQPNILHGVIVSGYKATYTHRDSVRLACLNGTVLRGRHVIECQGNGNWSSLPTCEFDCDLPPAIVNGYYTSMVYSKITLVTYECDKGYRLVGKAIISCSFSKWKGTAPQCKALCQKPEVGNGTLSDEKDQYVESENVTIQCDSGFAMLGSQSISCSESGTWYPEVPRCEQEASEDLKPALTGNKTMQYVPNSHDVKMALEIYKLTLEVELLQLQIQKEKHTEAH
B2: mouse coagulation factor 13B (protein, UniProt Q07968 22-669)
chain: EEKQCDFPTVENGRIAQYYYTFKSFYFPMSVDKKLSFFCLAGYATESGKQEEQIRCTAEGWSPNPRCYKKCLKPDLRNGYVSNDKVLYKLQERMSYGCSSGYKTTGGKDEEVVHCLSAGWSSQPSCRKEQETCLAPELEHGNYSTTQRTFKVKDIVAYTCTAGYYTTTGKQTGEAECQANGWSLTPQCNKLMCSSLRLIENGYFHPVKQTYEEGDVVQFFCHENYYLSGSDLIQCYNFGWYPESPICEGRRNRCPPPPVPLNSKIQPHSTTYRHGERVHIECELNFVIQGSEELLCENGKWTEPPKCIEEKEKVACEQPPSVENGVAHPHSEIYYSGDKVTYRCGGGYSLRGSSTITCNRGRWTLPPECVENIENCKPPPDIANGVVVDGLLASYTTGSSVEYRCNEYYLLKGSETSRCEQGAWSSPPVCLEPCTIDVDHMNRNNIQLKWKYEGKILHGDLIDFVCKQGYNLSPSIPLSEISAQCNRGDVRYPMCIRKESKGMCASPPVIRNGDIVSSAARTYENGSSVEYRCFDNHFLQGSQNVYCVDGVWTTPPSCLEPCTLSFVEMDKNYLQLKWNFDNRPLILHGEYIEFMCKRDAYISETSIAGSVLRVQCDRGRLKYPKCTPRDRRLSFQEALRTRRQMEKR
B3: mouse alpha-2-macroglobulin (protein, UniProt Q6GQT1 33-1474)
chain: PQKPIYMVMVPSLLHAGTPEKGCLLFNHLNETVTVKVSMESVRGNQSLFTDLVVDKDLFHCASFIVPQSSSNEVMFLTVQVKGPTHEFRRRSTVLIKTKESLVFAQTDKPIYKPGQMVRFRVVSLDENFHPLNELIPLLYIQDSKKNRIAQWQNFRLEGGLKQLSFPLSSEPTQGSYKVVIRTESGRTVEHPFSVKEFVLPKFEVKVAVPETITILEEEMNVSVCGIYTYGKPVPGHVTVNICRKYSNPSSCFGEESLAFCEKFSQQLDGRGCFSQLVKTKSFQLKRQEYEMQLDVNAKIQEEGTGVEETGKGLTKITRTITKLSFVNVDTHFRQGIPFVGQVLLVDGRGTPIPYEMIFIGADEANQNINTTTDKNGLARFSINTDDIMGTSLTVRAKYKDSNVCYGFRWLTEENVEAWHTANAVFSPSRSFVHLESLPYKLRCEQTLAVQAHYILNDEAVLERKELVFYYLMMAKGGIVRAGTHVLPVTQGHKKGHFSILISMETDLAPVARLVLYTILPNGEVVGDTVKYEIEKCLANKVDLVFHPNIGLPATRAFLSVMASPQSLCGLRAVDQSVLLTKPEAELSASLVYDLLPVKDLTGFPKGVNQQEEDTNGCLKQNDTYINGILYSPVQNTNEEDMYGFLKDMGLKVFTNLNIRKPKVCERLGVNKIPAAYHLVSQGHMDAFLESSESPTETTRSYFPETWIWDLVIVDSTGVAEMEVTVPDTITEWKAGAFCLSNDTGLGLSPVIDFQAFQPFFVDLTMPYSVIRGEAFTLKATVLNYLQTCIRVGVQLEASPDFLATPEEKEQKSHCICMNERHTMSWAVIPKSLGNVNFTVSAEALDSKELCRNEVPVVPERGKKDTIIKSLLVEPEGLENEVTFNSLLCPTGAEVSEQISLKLPSDVVEESARASVTVLGDILGSAMQNTQDLLKMPYGCGEQNMVLFAPNIYVLDYLNETEQLTQEIKTKAITYLNTGYQRQLNYKHRDGSYSTFGDKPGRSHANTWLTAFVLKSFAQARRYIFIDESHITQALTWLSQQQKDNGCFRSSGSLLNNAMKGGVEDEVTLSAYITIALLEMSLPVTHPVVRNALFCLDTAWKSARRGASGNHVYTKALLAYAFALAGNQDTKKEILKSLDEEAVKEDNSVHWTRAQKPRVPADLWYQPQAPSAEVEMTAYVLLAYLTTELVPTREDLTAAMLIVKWLTKQQNSHGGFSSTQDTVVALHALSKYGAATFTRAKKAAHVTIQSSGAFYTKFQVNNDNQLLLQRVTLPTVPGDYTAKVAGEGCVYLQTSLKYSVLPREKEFPFALVVQTLPGTCEDLKAHTTFQISLNISYIGSRSDSNMAIADVKMVSGFIPLKPTVKMLERSVHVSRTEVSNNHVLIYLDKVSNQMLTLFFMVQQDIPVRDLKPAIVKVYDYYEKDEFAVAKYSAPCSAGYGNA
B4: human alpha-2-macroglobulin (protein, UniProt P01023 24-1474)
chain: SVSGKPQYMVLVPSLLHTETTEKGCVLLSYLNETVTVSASLESVRGNRSLFTDLEAENDVLHCVAFAVPKSSSNEEVMFLTVQVKGPTQEFKKRTTVMVKNEDSLVFVQTDKSIYKPGQTVKFRVVSMDENFHPLNELIPLVYIQDPKGNRIAQWQSFQLEGGLKQFSFPLSSEPFQGSYKVVVQKKSGGRTEHPFTVEEFVLPKFEVQVTVPKIITILEEEMNVSVCGLYTYGKPVPGHVTVSICRKYSDASDCHGEDSQAFCEKFSGQLNSHGCFYQQVKTKVFQLKRKEYEMKLHTEAQIQEEGTVVELTGRQSSEITRTITKLSFVKVDSHFRQGIPFFGQVRLVDGKGVPIPNKVIFIRGNEANYYSNATTDEHGLVQFSINTTNVMGTSLTVRVNYKDRSPCYGYQWVSEEHEEAHHTAYLVFSPSKSFVHLEPMSHELPCGHTQTVQAHYILNGGTLLGLKKLSFYYLIMAKGGIVRTGTHGLLVKQEDMKGHFSISIPVKSDIAPVARLLIYAVLPTGDVIGDSAKYDVENCLANKVDLSFSPSQSLPASHAHLRVTAAPQSVCALRAVDQSVLLMKPDAELSASSVYNLLPEKDLTGFPGPLNDQDNEDCINRHNVYINGITYTPVSSTNEKDMYSFLEDMGLKAFTNSKIRKPKMCPQLQQYEMHGPEGLRVGFYESDVMGRGHARLVHVEEPHTETVRKYFPETWIWDLVVVNSAGVAEVGVTVPDTITEWKAGAFCLSEDAGLGISSTASLRAFQPFFVELTMPYSVIRGEAFTLKATVLNYLPKCIRVSVQLEASPAFLAVPVEKEQAPHCICANGRQTVSWAVTPKSLGNVNFTVSAEALESQELCGTEVPSVPEHGRKDTVIKPLLVEPEGLEKETTFNSLLCPSGGEVSEELSLKLPPNVVEESARASVSVLGDILGSAMQNTQNLLQMPYGCGEQNMVLFAPNIYVLDYLNETQQLTPEIKSKAIGYLNTGYQRQLNYKHYDGSYSTFGERYGRNQGNTWLTAFVLKTFAQARAYIFIDEAHITQALIWLSQRQKDNGCFRSSGSLLNNAIKGGVEDEVTLSAYITIALLEIPLTVTHPVVRNALFCLESAWKTAQEGDHGSHVYTKALLAYAFALAGNQDKRKEVLKSLNEEAVKKDNSVHWERPQKPKAPVGHFYEPQAPSAEVEMTSYVLLAYLTAQPAPTSEDLTSATNIVKWITKQQNAQGGFSSTQDTVVALHALSKYGAATFTRTGKAAQVTIQSSGTFSSKFQVDNNNRLLLQQVSLPELPGEYSMKVTGEGCVYLQTSLKYNILPEKEEFPFALGVQTLPQTCDEPKAHTSFQISLSVSYTGSRSASNMAIVDVKMVSGFIPLKPTVKMLERSNHVSRTEVSSNHVLIYLDKVSNQTLSLFFTVLQDVPVRDLKPAIVKVYDYYETDEFAIAEYNAPCSKDLGNA

These are yes or no findings as the source states them, for the method shown. Binding seen in cells or lysates may run through a third protein. Here binding means that the protein was enriched with, or labelled near, the bait; the list need not be complete. Tags and fused reporters may be left off the sequences shown.

For twelve molecules, binding results are on record in paper PMC11059317.

The target in one test is T1, Streptococcus pyogenes M1 protein (amino acids 42-484), TAP-tagged (Streptococcus pyogenes). Put plainly: affinity purification with mass spectrometry; 10 ug TAP-tagged M1 on Strep-Tactin Sepharose beads; pooled BALB/c mouse plasma, 37 C, 800 rpm, 1 h; washed with ice-cold PBS pH 7.4; eluted with 5 mM biotin; DDA- and DIA-MS; hits filtered against sfGFP bait; only the target purified.
As for “mouse albumin (from UniProt P07724 25-608)”, the binding entry was “binds”.

Take mouse alpha-1 antitrypsin (A1AT1-6): the binding result is “binds”. Turning to mouse fibulin, the binding entry is “binds”. On to “mouse maltase-glucoamylase (from UniProt B5THE2)”, for which the binding entry was “binds”. Turning to B1, the binding entry is recorded as “binds”.

B2: the binding result is reported as “binds”. Regarding B3, the binding entry is recorded as “binds”.

A further test shares this target. Put plainly: affinity purification with mass spectrometry; 10 ug TAP-tagged M1 on Strep-Tactin Sepharose beads; pooled human plasma, 37 C, 800 rpm, 1 h; washed with ice-cold PBS pH 7.4; eluted with 5 mM biotin; DDA- and DIA-MS; hits filtered against sfGFP bait; only the target purified.
As to “human albumin (from UniProt P02768 25-609)”, the binding result is “binds”.

In the case of “human complement system C4b-binding protein”, the binding entry was “binds”. With human ficolin, the binding entry is given as “binds”.

Regarding human haptoglobin, the binding result was “binds”. Still for that read-out and setting: the result for B4 reads “binds”.
